No constants are given. Whether binding was seen depends on the method and setting. In cells and extracts the contact can be indirect. Some binding calls cover weakened binding; strength is not graded here.
Experiments:
[1] = biological target: T1, cholecystokinin B receptor (gastrin receptor) (human (endogenous in HK-2)) (UniProt P32239); assay: co-IP; whole cell lysates (500 ug protein, RIPA buffer) mixed with mouse anti-D5R or mouse anti-CCKBR antibody, protein A/G agarose overnight at 4 C; blotted with rabbit anti-CCKBR or rabbit anti-D5R antibody; non-immune mouse serum as negative control
T1 sequence: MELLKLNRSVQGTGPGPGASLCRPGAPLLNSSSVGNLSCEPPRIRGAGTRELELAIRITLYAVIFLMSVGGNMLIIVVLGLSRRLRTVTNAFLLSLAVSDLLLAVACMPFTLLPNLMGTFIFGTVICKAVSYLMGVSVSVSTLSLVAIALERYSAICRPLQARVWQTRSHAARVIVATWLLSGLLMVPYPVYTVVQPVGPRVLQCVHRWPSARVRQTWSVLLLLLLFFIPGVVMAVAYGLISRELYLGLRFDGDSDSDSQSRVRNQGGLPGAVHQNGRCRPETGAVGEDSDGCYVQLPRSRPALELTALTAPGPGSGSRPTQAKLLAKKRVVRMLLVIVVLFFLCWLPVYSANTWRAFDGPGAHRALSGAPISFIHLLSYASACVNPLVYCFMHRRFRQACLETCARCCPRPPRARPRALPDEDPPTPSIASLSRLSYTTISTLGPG

The chains behind the UniProt entries cited, without tags or fusion partners. Where a name states a change or a piece, a line headed by the entry shows the natural chain unless it says otherwise.
UniProt P21918: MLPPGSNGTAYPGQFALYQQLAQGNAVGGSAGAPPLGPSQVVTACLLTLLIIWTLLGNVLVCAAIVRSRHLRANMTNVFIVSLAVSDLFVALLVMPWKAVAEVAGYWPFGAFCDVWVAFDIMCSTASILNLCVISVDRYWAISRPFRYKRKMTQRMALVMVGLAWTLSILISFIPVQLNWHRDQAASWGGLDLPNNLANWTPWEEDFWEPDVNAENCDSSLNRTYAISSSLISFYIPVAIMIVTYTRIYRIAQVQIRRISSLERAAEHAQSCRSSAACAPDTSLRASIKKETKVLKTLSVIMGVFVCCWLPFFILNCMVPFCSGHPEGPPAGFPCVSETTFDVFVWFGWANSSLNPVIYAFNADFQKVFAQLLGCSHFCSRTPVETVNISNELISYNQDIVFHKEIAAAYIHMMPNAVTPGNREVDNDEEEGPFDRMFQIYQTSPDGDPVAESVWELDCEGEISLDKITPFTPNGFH

[2] = biological target: T2, full-length human CCKBR (stably expressed in HEK293-D5R-CCKBR cells) (human) (UniProt P32239); assay: as above
T2 sequence: T1 sequence

Substance | binding [1] | binding [2]
dopamine D5 receptor (from UniProt P21918 1-477) | binds | 
full-length human D5R (stably overexpressed in HEK293-D5R-CCKBR cells) (from UniProt P21918 1-477) (receptor) |  | binds
